Results on 45 molecules are retold here after the supplement of paper PMC9135407.

In this test the test system is primary human hepatic stellate cells (donor 1). Put plainly: percent Bodipy-positive cells; higher = more lipid droplet accumulation. The following applies: 48 h. The protocol: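 Primary lipid accumulation screen in primary human hepatic stellate cell myofibroblasts (donor 1, passage 8) in 384-well plates. 100 nL of library compound was pin-transferred into 30 µL medium in duplicate, and cells were treated for 48 h. The 'Scaled' score combines distance from plate baseline, toxicity and reproducibility penalties, and is normalised to nortriptyline (positive) and DMSO (negative) controls on each plate. A hit is defined as scaled >0.85 or among the top 3 wells per plate.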

The mark [1] stands for this setting: library stock concentration: 1 mM.
Setting [2] is: library stock concentration: 3.33 mM.
Setting [3] is: library stock concentration: 10 mM.
Setting [4] is: library stock concentration: 80 uM.
The mark [5] stands for this setting: library stock concentration: 400 uM.
[6] abbreviates: library stock concentration: 2 mM.
The mark [7] stands for this setting: library stock concentration: 4.4 mM.
Where [8] appears, read: library stock concentration: 5.3 mM.

Structures are written as SMILES. Several values for one entry are separate records, joined by “and”; a condition that tells them apart may be missing. Equal entries are not always repeated. Structures can show the parent of a compound that is named as a salt. ± gives the standard deviation of the averaged measurements. The list shows a part of the results. Baselines shift from plate to plate; read single values as rough.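 Culture-activated primary human stellate myofibroblasts, where regained lipid droplets signal inactivation. Value: share of Hoechst-counted cells above a per-plate Bodipy cutoff, in duplicate wells, with DMSO negative and nortriptyline positive controls on each plate. Hits: a control-normalized score above the plate's top-tenth-percentile nortriptyline wells, or one of a plate's three best wells. Final well concentrations are not given.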

`CCCCCCCCCCCCCCP(=O)(O)O` [Tetradecyl Phosphonate]: under setting [1], the “percent Bodipy-positive cells” value was determined as 8.36 ± 1.5%.

As for `CCOC(=O)O[C@]1(C(=O)OCCl)CC[C@H]2[C@@H]3CCC4=CC(=O)C=C[C@]4(C)[C@H]3[C@@H](O)C[C@@]21C` [Loteprednol etabonate], the “percent Bodipy-positive cells” value is, setting by setting: under setting [2], 6.21 ± 0.15%; under setting [3], 9.48 ± 4.8%.

In the case of `CCOC(=O)O[C@]1(C(=O)OCCl)CC[C@H]2[C@@H]3CCC4=CC(=O)C=C[C@]4(C)[C@H]3[C@@H](O)C[C@@]21C`, the “percent Bodipy-positive cells” value under setting [3] was 7.04 ± 4.2%.

As to `CC[C@H]1C(=O)OC[C@@H]1Cc1cncn1C` [Isopilocarpine nitrate], the “percent Bodipy-positive cells” value under setting [3] is 23.2 ± 18%.

Regarding `CCCCCCCC/C=C\CCCCCCCCOC[C@H](COP(=O)([O-])OCC[N+](C)(C)C)OC(C)=O`, the “percent Bodipy-positive cells” value under setting [1] came out at 8.46 ± 4%.

Take `CCc1cc2c(cc1N1CCC(N3CCOCC3)CC1)C(C)(C)c1[nH]c3cc(C#N)ccc3c1C2=O`: the “percent Bodipy-positive cells” value reads like this: under setting [4], 5.6 ± 0.17%; under setting [5], 9.52 ± 2.2%; under setting [6], 20.9 ± 3.6%.

Take `Cn1c(=O)c2[nH]c(-c3ccccc3)nc2n(C)c1=O` [1,3-Dimethyl-8-phenylxanthine]: the “percent Bodipy-positive cells” value under setting [3] worked out at 39.4 ± 22%.

`COC(=O)C1=CO[C@@H](O[C@@H]2O[C@H](CO)[C@@H](O)[C@H](O)[C@H]2O)[C@@H]2C(CO)=CC[C@H]12` [Geniposide]: the “percent Bodipy-positive cells” value reads like this: under setting [2], 24.6 ± 13%; under setting [3], 28.9 ± 2.1%.

Regarding `CCCn1cc(-c2ccnc(NC3CCN(Cc4cccnc4)CC3)n2)c(C)n1`, the “percent Bodipy-positive cells” value under setting [3] was determined as 86.9 ± 2.9%.

As to `CC(C)Nc1cccnc1N1CCN(C(=O)c2cc3cc(NS(C)(=O)=O)ccc3[nH]2)CC1` [Delavirdine mesylate], under setting [7], the “percent Bodipy-positive cells” value turned out to be 8.9 ± 0.65%.

Regarding `Cc1onc(-c2ccccc2Cl)c1C(=O)N[C@@H]1C(=O)N2[C@@H]1SC(C)(C)[C@@H]2C(=O)O` [Cloxacillin sodium], the “percent Bodipy-positive cells” value is 2.39 ± 0.4% under setting [7] and 10.2 ± 0.54% under setting [3].

Consider `Cc1onc(-c2ccccc2Cl)c1C(=O)N[C@@H]1C(=O)N2[C@@H]1SC(C)(C)[C@@H]2C(=O)O` [Cloxacillin Sodium], for which the “percent Bodipy-positive cells” value reads like this: under setting [2], 6.77 ± 0.31%; under setting [3], 10 ± 1.4%.

Take `Cc1onc(-c2ccccc2Cl)c1C(=O)N[C@@H]1C(=O)N2[C@@H]1SC(C)(C)[C@@H]2C(=O)O` [Cloxacillin sodium salt]: the “percent Bodipy-positive cells” value is 31.3 ± 3%.

Turning to `C#Cc1cccc(Nc2ncnc3cc(OCCOC)c(OCCOC)cc23)c1` [Erlotinib], the “percent Bodipy-positive cells” value (library stock concentration: 5.1 mM) amounted to 8.76 ± 3%.

For `C#Cc1cccc(Nc2ncnc3cc(OCCOC)c(OCCOC)cc23)c1`, the “percent Bodipy-positive cells” value is 13.5 ± 1.1% under setting [4]; 11.4% and 14.9% under setting [5]; 17.6% and 13.5% under setting [6]; 18.5% and 40.3% under setting [3].

`C#Cc1cccc(Nc2ncnc3cc(OCCOC)c(OCCOC)cc23)c1` [Erlotinib HCl (OSI-744)]: the “percent Bodipy-positive cells” value worked out at 11.5 ± 2.2% under setting [2] and 27.1 ± 7.5% under setting [3].

With `COc1ccc(Cn2ccc3ccc(C(=O)NO)cc32)cc1`, the “percent Bodipy-positive cells” value runs as follows: under setting [2], 9.03 ± 4.3%; under setting [3], 12.2 ± 2.9%.

As to `CN(CCO)CC(O)Cn1cnc2c1c(=O)n(C)c(=O)n2C` (centres undefined), under setting [3], the “percent Bodipy-positive cells” value was determined as 7.63 ± 0.76%.

With `NC(=O)c1cnc(N[C@@H]2CCCC[C@@H]2N)nc1Nc1cccc(-n2nccn2)c1`, the “percent Bodipy-positive cells” value under setting [4] turned out to be 6.52 ± 0.96%; the “percent Bodipy-positive cells” value under setting [5] came to 12.5 ± 4.2%; the “percent Bodipy-positive cells” value under setting [6] amounted to 24.6 ± 4.9%; the “percent Bodipy-positive cells” value under setting [2] was 73.7 ± 9.9%; the “percent Bodipy-positive cells” value under setting [3] was 100% and 83.1%.

On to `CN[C@H](CC(=O)O)C(=O)O` [N-Methyl-D-aspartic acid], for which, under setting [3], the “percent Bodipy-positive cells” value came to 26.2 ± 4.7%.

Consider `CN[C@H](CC(=O)O)C(=O)O` [N-methyl-d-aspartic acid (nmda)], for which, under setting [3], the “percent Bodipy-positive cells” value was 39.1 ± 11%.

`CCCCCCCC/C=C\C/C=C\C/C=C\CCCC(=O)O` [Mead acid (20:3 n-9)]: the “percent Bodipy-positive cells” value under setting [1] was 6.36 ± 2.8%.

On to `NS(=O)(=O)c1cc2c(cc1Cl)NC(C(Cl)Cl)NS2(=O)=O` (centres undefined) [Trichlormethiazide], for which the “percent Bodipy-positive cells” value stood at 9.01 ± 2.4%. In addition, the “percent Bodipy-positive cells” value under setting [2] was 10.3 ± 0.75%. Besides, the “percent Bodipy-positive cells” value under setting [8] was 11.1 ± 1.4%. In addition, under setting [3], the “percent Bodipy-positive cells” value is 7.06% and 18.3%.

Regarding `NS(=O)(=O)c1cc2c(cc1Cl)NC(C(Cl)Cl)NS2(=O)=O` (centres undefined) [Trichloromethiazide], the “percent Bodipy-positive cells” value under setting [8] came to 8 ± 3.5%.

As to `CN1CCN(C2Cc3ccccc3Sc3ccc(Cl)cc32)CC1` (centres undefined), the “percent Bodipy-positive cells” value under setting [3] was determined as 93.9 ± 1.1%.

Take `CN[C@@H]1[C@H](O)[C@H](NC)[C@H]2O[C@@]3(O)C(=O)C[C@@H](C)O[C@H]3O[C@@H]2[C@H]1O` [Spectinomycin hydrochloride]: the “percent Bodipy-positive cells” value reads like this: (library stock concentration: 4.9 mM) 10.6 ± 5.1%; under setting [3], 8.09 ± 4.2%.

As for `CN[C@@H]1[C@H](O)[C@H](NC)[C@H]2O[C@@]3(O)C(=O)C[C@@H](C)O[C@H]3O[C@@H]2[C@H]1O` [Spectinomycin dihydrochloride], the “percent Bodipy-positive cells” value was 8.81 ± 3.3%.

Turning to `CN[C@@H]1[C@H](O)[C@H](NC)[C@H]2O[C@@]3(O)C(=O)C[C@@H](C)O[C@H]3O[C@@H]2[C@H]1O` [Spectinomycin HCl], the “percent Bodipy-positive cells” value amounted to 9.37 ± 2.9% under setting [2] and 8.22 ± 1.2% under setting [3].

Consider `CN[C@@H]1[C@H](O)[C@H](NC)[C@H]2O[C@@]3(O)C(=O)C[C@@H](C)O[C@H]3O[C@@H]2[C@H]1O`, for which the “percent Bodipy-positive cells” value under setting [3] is 21.3 ± 4.1%.

On to `CN[C@@H]1[C@H](O)[C@H](NC)[C@H]2O[C@@]3(O)C(=O)C[C@@H](C)O[C@H]3O[C@@H]2[C@H]1O` [Spectinomycin], for which the “percent Bodipy-positive cells” value (library stock concentration: 6 mM) worked out at 7.57 ± 2.8%.

Regarding `CN1C(=O)C(c2c[nH]c3ccccc23)=C(c2c[nH]c3ccccc23)C1=O` [Bisindolylmaleimide V], the “percent Bodipy-positive cells” value runs as follows: under setting [1], 5.89 ± 2.4%; under setting [2], 8.29 ± 7.4%.

Turning to `CCCCCCOC(=O)NC(=N)c1ccc(NCc2nc3cc(C(=O)N(CCC(=O)OCC)c4ccccn4)ccc3n2C)cc1` [Dabigatran Etexilate], the “percent Bodipy-positive cells” value is, setting by setting: under setting [2], 45.4 ± 34%; under setting [3], 62.7 ± 0.66%.

With `CN(N=O)C(=O)N[C@@H]1[C@@H](O)[C@H](O)[C@@H](CO)O[C@@H]1O` [Streptozosin], the “percent Bodipy-positive cells” value came to 14.9 ± 4.1% (library stock concentration: 7.5 mM) and 15 ± 2% under setting [3].

On to `NCCCC(=O)O` [Gamma-aminobutyric acid], for which, under setting [3], the “percent Bodipy-positive cells” value amounted to 18.2 ± 3.6%.

With `Cc1ccc(-c2nn(C(C)(C)C)c3ncnc(N)c23)cc1`, the “percent Bodipy-positive cells” value under setting [4] turned out to be 4.57 ± 1.4%, the “percent Bodipy-positive cells” value under setting [5] was 6.84 ± 2.3%, the “percent Bodipy-positive cells” value under setting [6] was found to be 6.24 ± 1.7% and the “percent Bodipy-positive cells” value under setting [2] came out at 11.7 ± 1.4%.

In the case of `CCCCCCCCCCCCCCCCCCCCCCO` [Docosanol], for the setting “library stock concentration: 6.1 mM”, the “percent Bodipy-positive cells” value was 9.34 ± 3.4%.

Regarding `COc1ccc(O)cc1`, the “percent Bodipy-positive cells” value under setting [3] was 21.8 ± 8.9%.

In the case of `COc1ccc(O)cc1` [Mequinol], the “percent Bodipy-positive cells” value reads like this: under setting [2], 13.2 ± 0.16%; under setting [3], 38.1 ± 16%.

For `CC(=O)NC(Cc1ccccc1)C(=O)O` (centres undefined), the “percent Bodipy-positive cells” value under setting [3] amounted to 23.7 ± 4.3%.

`CC(C)C[C@@H](C(=O)N[C@H](C(=O)OC1CCCC1)c1ccccc1)[C@H](O)C(=O)NO`: the “percent Bodipy-positive cells” value under setting [3] worked out at 10.8 ± 3.3%.

Turning to `Cc1c(-c2ccccc2)oc2c(C(=O)OCCN3CCCCC3)cccc2c1=O` [Flavoxate HCl], the “percent Bodipy-positive cells” value runs as follows: under setting [2], 9.38 ± 0.53%; under setting [3], 39.3 ± 8.2%.

On to `Cc1c(-c2ccccc2)oc2c(C(=O)OCCN3CCCCC3)cccc2c1=O` [Flavoxate hydrochloride], for which the “percent Bodipy-positive cells” value turned out to be 51.8 ± 33%.

For the molecule `CCCCCC(O)/C=C/C=O` (centres undefined) [4-hydroxy Nonenal], under setting [1], the “percent Bodipy-positive cells” value worked out at 12.8 ± 3%.

Consider `CC12CCC(CC1=O)C2(C)C` (centres undefined) [Camphor (1r)], for which, where the note is “library stock concentration: 13.1 mM”, the “percent Bodipy-positive cells” value stood at 2.92 ± 1.2%.

Turning to `C[C@@H]1NC(=O)[C@@H](N)CNC(=O)[C@H](C2CCNC(=N)N2)NC(=O)/C(=C/NC(N)=O)NC(=O)[C@H](CNC(=O)CC(N)CCCN)NC1=O.N=C1NCC[C@H]([C@@H]2NC(=O)/C(=C/NC(N)=O)NC(=O)[C@H](CNC(=O)C[C@@H](N)CCCN)NC(=O)[C@H](CO)NC(=O)[C@@H](N)CNC2=O)N1` [Capreomycin sulfate], the “percent Bodipy-positive cells” value came out at 2.56 ± 0.9% (library stock concentration: 2.6 mM) and 10.6 ± 3% under setting [3].
